# According to PubChem BioAssay AID258 (DTP/NCI, 2004):
# The list is a part of this screen's results and no random one: it gathers tests that were run many times, whatever their T/C, doses with no T/C, and many T/C values between a quarter and a half above the control. Other doses and runs of a compound stand elsewhere. T/C is the treated group as % of the vehicle group. Some doses have a count of surviving animals in place of a T/C: the source holds a T/C of zero for them, seemingly a mark for toxic or unscored doses. Survivors were counted at the toxicity check, usually on the fifth day, unless a day is given; later deaths do not show. Schedules are NCI's codes, read here as Q, the interval in days (D) or hours (H), X, the number of doses. Some schedule codes hold Z or #, which are not explained here. Where survival is the endpoint, this PubChem deposit counts one and a half times the control or more as active, and values a quarter to a half above the control carry no call in these data; other NCI protocols may use other cut-offs. Some T/C values are followed by the survivors on the day toxicity was checked, most often the fifth; without a count, all were alive then. Some doses were run more than once; the values are given in rising order. Marks such as (2×) give the number of equal values in this list.
# Tested on: CD2F1 mice, L1210 leukemia sc, survival T/C
# Assay: NCI In Vivo Anticancer Drug Screen. Data for tumor model L1210 Leukemia (subcutaneous) in CD2F1 (CDF1) mice
# Conditions: T/C endpoint: median survival time, higher T/C = longer survival
# Summary of the method: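 Transplantable tumor-bearing mice were treated with compound; survival or tumor size measured and expressed as treated-group value (T) divided by vehicle-treated control value (C).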
# [1] = dose: 23.0 mg/kg/injection, schedule: Q01DX Z (sc), vehicle: other
# [2] = dose: 39.0 mg/kg/injection, schedule: Q01DX Z (sc), vehicle: methylcellulose (MC)
# [3] = dose: 39.0 mg/kg/injection, schedule: Q01DX Z (sc), vehicle: other
smiles,measurement,setting,value
S=c1nc[nH]c2nc[nH]c12,survivor count,"dose: 5.0 mg/kg/injection, schedule: Q01DX Z (sc), vehicle: methylcellulose (MC)",3 of 10
same,survivor count,"dose: 8.4 mg/kg/injection, schedule: Q01DX Z (sc), vehicle: methylcellulose (MC)",5 of 10
same,T/C,"dose: 8.4 mg/kg/injection, schedule: Q## X Z (sc), vehicle: other",138 % of control
same,T/C,"dose: 10.0 mg/kg/injection, schedule: Q01DX009 (sc), vehicle: saline with Tween-80",142 % of control
same,survivor count,"dose: 14.0 mg/kg/injection, schedule: Q01DX Z (sc), vehicle: methylcellulose (MC)",2 of 10
same,T/C,[1],"100, 105, 105 % of control [7 of 8 alive]"
same,survivor count,[1],4 of 10
same,T/C,[2],136 % of control
same,survivor count,[2],5 of 10
same,T/C,[3],100 (2×) and 105 % of control
same,survivor count,[3],4 of 10
same,T/C,"dose: 39.0 mg/kg/injection, schedule: Q## X Z (sc), vehicle: other",144 % of control
same,T/C,"dose: 65.0 mg/kg/injection, schedule: Q01DX Z (ip), vehicle: other",145 % of control
same,T/C,"dose: 65.0 mg/kg/injection, schedule: Q01DX Z (oral), vehicle: other",125 % of control
same,T/C,"dose: 65.0 mg/kg/injection, schedule: Q01DX Z (sc), vehicle: methylcellulose (MC)",131 % of control
same,T/C,"dose: 65.0 mg/kg/injection, schedule: Q01DX Z (sc), vehicle: other","120 [7 of 10 alive], 130, 154, 166 % of control"
same,T/C,"dose: 108.0 mg/kg/injection, schedule: Q01DX Z (sc), vehicle: other","163, 170 [8 of 10 alive], 177, 180 % of control"
same,T/C,"dose: 108.0 mg/kg/injection, schedule: Q#A X Z (sc), vehicle: other",144 % of control
same,T/C,"dose: 180.0 mg/kg/injection, schedule: Q01DX Z (ip), vehicle: other",130 % of control
same,T/C,"dose: 180.0 mg/kg/injection, schedule: Q01DX Z (oral), vehicle: other",145 % of control
same,T/C,"dose: 180.0 mg/kg/injection, schedule: Q01DX Z (sc), vehicle: methylcellulose (MC)",140 % of control
same,T/C,"dose: 180.0 mg/kg/injection, schedule: Q01DX Z (sc), vehicle: other","122, 130, 145 [9 of 10 alive], 180 % of control [9 of 10 alive]"
same,T/C,"dose: 200.0 mg/kg/injection, schedule: Q01DX Z (sc), vehicle: other",137 % of control [7 of 8 alive]
same,T/C,"dose: 300.0 mg/kg/injection, schedule: Q01DX Z (sc), vehicle: methylcellulose (MC)",130 % of control
same,survivor count,"dose: 300.0 mg/kg/injection, schedule: Q01DX Z (sc), vehicle: other",4 of 10
same,survivor count,"dose: 300.0 mg/kg/injection, schedule: Q07DX Z (sc), vehicle: other",4 of 8
O=C(Nc1ccc(NC2=NCCN2)cc1)c1cccc(C(=O)Nc2ccc(NC3=NCCN3)cc2)c1,survivor count,"dose: 65.0 mg/kg/injection, schedule: Q01DX Z (sc), vehicle: water",3 of 8
